Measured values from article doi:10.1101/2021.09.01.458589.

Legend:
[1] = biological target: T1, RPM1-interacting protein4 of Arabidopsis, N-terminally FLAG-tagged (FLAG:AtRIN4) (Arabidopsis) (UniProt Q8GYN5); assay: co-IP
T1 sequence: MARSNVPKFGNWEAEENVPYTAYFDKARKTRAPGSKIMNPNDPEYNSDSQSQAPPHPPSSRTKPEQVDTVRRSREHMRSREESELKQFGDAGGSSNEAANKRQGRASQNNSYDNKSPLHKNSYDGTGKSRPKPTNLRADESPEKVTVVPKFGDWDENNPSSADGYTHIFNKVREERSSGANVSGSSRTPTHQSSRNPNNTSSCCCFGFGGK

[2] = biological target: AvrRpm2Psa (allele of Psa biovar 5), C-terminally HA-tagged (AvrRpm2Psa:HA) (Pseudomonas syringae pv. actinidiae (biovar 5)); assay: co-IP

Row | Molecule | binding [1] | binding [2]
1 | AvrRpm2Psa (allele of Psa biovar 5), C-terminally HA-tagged (AvrRpm2Psa:HA) (enzyme) | binds | –
2 | AvrRpm2Psa^H68A, C-terminally HA-tagged (enzyme) | binds | –
3 | AvrRpm2Psa^Y125A, C-terminally HA-tagged (enzyme) | binds | –
4 | RPM1-interacting protein4 of Arabidopsis, N-terminally FLAG-tagged (FLAG:AtRIN4) (protein, UniProt Q8GYN5 1-211) MARSNVPKFGNWEAEENVPYTAYFDKARKTRAPGSKIMNPNDPEYNSDSQSQAPPHPPSSRTKPEQVDTVRRSREHMRSREESELKQFGDAGGSSNEAANKRQGRASQNNSYDNKSPLHKNSYDGTGKSRPKPTNLRADESPEKVTVVPKFGDWDENNPSSADGYTHIFNKVREERSSGANVSGSSRTPTHQSSRNPNNTSSCCCFGFGGK | – | binds

Results are given in words; binding and its absence hold for the method and conditions named. In cells and extracts the contact can be indirect. A result given as binding can be weak or reduced; the word gives no strength. Where a sequence is shown, tags or fusion partners need not be part of it.
